Laboratory results reported in article doi:10.1101/2024.09.10.612038.
Results are given in words; binding and its absence hold for the method and conditions named. Some binding calls cover weakened binding; strength is not graded here.

By UniProt entry, the sequences of proteins in these tests, tags left out.
UniProt A5YKK6, whole entry: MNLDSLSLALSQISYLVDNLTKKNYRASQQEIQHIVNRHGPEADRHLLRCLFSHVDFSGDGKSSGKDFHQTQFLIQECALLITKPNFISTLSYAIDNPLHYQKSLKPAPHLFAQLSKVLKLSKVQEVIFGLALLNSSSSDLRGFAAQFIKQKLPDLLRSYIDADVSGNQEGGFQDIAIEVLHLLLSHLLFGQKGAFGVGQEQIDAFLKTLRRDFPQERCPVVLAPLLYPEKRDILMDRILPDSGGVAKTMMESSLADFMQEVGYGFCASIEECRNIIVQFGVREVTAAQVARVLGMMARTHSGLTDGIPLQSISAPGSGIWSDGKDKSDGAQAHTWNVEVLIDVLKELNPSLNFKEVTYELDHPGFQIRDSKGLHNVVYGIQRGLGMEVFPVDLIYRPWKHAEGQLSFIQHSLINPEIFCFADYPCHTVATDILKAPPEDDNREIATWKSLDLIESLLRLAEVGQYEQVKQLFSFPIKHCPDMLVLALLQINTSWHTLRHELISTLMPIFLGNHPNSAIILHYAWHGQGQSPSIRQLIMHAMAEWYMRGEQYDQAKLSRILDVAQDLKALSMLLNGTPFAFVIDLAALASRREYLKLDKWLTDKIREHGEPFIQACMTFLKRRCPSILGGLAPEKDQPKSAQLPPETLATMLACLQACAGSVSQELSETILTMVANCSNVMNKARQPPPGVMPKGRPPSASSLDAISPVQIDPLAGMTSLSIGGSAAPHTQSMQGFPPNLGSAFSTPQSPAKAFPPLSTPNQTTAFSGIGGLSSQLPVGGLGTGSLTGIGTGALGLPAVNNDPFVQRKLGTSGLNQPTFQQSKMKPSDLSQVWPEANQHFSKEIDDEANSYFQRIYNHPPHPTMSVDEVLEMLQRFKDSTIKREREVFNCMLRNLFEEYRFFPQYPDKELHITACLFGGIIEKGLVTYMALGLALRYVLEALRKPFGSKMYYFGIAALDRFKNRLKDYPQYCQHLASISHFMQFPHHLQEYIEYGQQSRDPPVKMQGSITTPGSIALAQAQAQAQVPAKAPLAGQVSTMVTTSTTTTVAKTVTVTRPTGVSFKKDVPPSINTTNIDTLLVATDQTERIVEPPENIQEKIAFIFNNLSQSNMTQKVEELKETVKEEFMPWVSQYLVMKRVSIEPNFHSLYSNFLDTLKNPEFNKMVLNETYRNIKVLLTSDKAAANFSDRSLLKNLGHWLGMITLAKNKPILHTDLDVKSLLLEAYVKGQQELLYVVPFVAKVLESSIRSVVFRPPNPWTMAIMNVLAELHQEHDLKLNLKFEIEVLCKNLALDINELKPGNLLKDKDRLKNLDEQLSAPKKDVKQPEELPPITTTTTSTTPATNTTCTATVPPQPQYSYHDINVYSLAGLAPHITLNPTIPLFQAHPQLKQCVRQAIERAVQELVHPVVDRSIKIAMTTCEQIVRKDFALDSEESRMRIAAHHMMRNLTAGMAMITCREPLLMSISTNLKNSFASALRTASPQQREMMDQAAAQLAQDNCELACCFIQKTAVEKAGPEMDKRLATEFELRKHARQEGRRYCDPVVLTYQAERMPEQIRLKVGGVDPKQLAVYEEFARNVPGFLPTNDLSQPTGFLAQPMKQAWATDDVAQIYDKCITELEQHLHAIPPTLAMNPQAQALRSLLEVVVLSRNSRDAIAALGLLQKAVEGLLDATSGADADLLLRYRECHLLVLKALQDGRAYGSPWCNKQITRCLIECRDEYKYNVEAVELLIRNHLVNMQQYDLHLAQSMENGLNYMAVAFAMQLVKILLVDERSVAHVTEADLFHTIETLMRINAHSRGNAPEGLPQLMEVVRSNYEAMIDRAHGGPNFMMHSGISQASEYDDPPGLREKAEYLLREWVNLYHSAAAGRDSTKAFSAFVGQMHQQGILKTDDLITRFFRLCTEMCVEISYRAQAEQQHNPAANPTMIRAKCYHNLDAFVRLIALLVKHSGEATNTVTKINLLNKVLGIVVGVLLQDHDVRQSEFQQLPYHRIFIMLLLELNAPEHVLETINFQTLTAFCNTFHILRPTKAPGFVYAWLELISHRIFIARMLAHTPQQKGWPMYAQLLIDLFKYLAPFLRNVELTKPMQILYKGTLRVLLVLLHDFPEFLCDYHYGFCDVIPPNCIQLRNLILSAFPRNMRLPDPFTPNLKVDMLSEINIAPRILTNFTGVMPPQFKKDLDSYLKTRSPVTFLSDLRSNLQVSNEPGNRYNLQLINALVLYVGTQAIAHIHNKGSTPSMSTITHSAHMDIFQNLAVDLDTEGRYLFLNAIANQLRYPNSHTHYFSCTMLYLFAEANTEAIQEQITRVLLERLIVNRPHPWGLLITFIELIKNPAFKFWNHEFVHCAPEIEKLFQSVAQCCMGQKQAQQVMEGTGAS
UniProt Q9NZN8, whole entry: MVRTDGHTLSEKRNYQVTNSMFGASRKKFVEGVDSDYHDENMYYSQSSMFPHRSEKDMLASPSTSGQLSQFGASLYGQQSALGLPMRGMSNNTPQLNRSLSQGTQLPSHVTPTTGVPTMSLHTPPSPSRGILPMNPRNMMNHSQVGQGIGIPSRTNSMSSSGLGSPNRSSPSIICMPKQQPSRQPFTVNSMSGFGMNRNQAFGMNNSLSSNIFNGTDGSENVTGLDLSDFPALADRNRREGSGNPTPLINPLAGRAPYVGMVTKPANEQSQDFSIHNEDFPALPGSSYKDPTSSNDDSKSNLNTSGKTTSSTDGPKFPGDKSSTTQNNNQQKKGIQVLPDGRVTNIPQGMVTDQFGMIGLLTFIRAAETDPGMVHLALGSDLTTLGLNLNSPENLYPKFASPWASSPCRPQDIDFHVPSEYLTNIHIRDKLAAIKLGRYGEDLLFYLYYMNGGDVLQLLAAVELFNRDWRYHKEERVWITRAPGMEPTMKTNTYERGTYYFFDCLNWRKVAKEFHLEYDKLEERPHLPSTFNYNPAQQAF
UniProt O75175, whole entry: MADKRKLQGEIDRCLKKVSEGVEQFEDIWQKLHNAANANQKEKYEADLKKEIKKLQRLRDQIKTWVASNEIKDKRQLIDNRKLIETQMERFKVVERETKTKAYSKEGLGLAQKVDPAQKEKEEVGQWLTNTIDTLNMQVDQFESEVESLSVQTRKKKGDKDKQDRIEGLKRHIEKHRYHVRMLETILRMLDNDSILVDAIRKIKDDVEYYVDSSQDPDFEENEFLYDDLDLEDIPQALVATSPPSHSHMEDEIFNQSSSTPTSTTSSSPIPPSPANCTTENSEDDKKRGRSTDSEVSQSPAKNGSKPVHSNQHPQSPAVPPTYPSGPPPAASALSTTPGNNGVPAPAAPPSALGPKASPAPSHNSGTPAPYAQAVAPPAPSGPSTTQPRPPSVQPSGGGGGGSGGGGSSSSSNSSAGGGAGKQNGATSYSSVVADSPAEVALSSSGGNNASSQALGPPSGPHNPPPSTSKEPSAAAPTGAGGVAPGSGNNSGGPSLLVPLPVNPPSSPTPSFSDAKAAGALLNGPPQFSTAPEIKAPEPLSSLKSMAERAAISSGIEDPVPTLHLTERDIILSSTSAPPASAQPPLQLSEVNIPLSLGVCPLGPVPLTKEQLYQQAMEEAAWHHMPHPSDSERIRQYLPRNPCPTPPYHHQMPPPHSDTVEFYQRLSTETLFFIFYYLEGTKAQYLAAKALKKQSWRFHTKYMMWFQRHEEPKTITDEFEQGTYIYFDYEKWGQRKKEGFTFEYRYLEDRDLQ
UniProt Q92600, whole entry: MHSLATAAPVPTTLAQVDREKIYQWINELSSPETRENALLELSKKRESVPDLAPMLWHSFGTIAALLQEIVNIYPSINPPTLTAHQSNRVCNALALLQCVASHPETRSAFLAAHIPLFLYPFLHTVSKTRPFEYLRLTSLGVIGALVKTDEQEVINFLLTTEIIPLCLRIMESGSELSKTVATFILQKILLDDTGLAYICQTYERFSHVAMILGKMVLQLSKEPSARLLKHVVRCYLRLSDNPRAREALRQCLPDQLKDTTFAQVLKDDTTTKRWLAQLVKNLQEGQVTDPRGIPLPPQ

Tests used:
[1] = biological target: CNOT1^AID (human) (UniProt A5YKK6); experiment: SEC
[2] = biological target: CNOT2 (human (endogenous in DLD-1)) (UniProt Q9NZN8); experiment: SEC

CNOT2 (from UniProt Q9NZN8 1-540)
binding [1]: binds

CNOT3 (from UniProt O75175 1-753)
binding [2]: binds

CNOT9 (from UniProt Q92600 1-299)
binding [1]: binds
